Data from article PMC6397164.
These are yes or no findings as the source states them, for the method shown. In cells and extracts the contact can be indirect. Some results given as binding are weak or reduced against the parent protein; the word gives no strength. Where a sequence is shown, tags or fusion partners need not be part of it. Each block holds one molecule with its values, some of them ahead of it.

Sequences of proteins named here, by UniProt entry; tags and fusion partners are left off.
UniProt P06241: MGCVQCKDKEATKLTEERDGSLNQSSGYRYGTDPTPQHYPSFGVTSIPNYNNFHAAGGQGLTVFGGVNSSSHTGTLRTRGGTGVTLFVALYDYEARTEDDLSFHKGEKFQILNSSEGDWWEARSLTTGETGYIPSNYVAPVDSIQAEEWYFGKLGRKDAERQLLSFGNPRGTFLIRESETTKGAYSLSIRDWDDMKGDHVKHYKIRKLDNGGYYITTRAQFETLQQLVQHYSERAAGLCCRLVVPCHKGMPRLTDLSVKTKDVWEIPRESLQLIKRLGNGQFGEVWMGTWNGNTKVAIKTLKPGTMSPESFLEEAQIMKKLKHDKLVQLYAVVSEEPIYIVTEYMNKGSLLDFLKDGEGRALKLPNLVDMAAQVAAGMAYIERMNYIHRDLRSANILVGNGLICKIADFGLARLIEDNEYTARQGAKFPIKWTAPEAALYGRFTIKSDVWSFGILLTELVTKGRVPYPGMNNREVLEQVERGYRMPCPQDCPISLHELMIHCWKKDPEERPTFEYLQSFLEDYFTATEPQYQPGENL

Assays:
[1] = molecular target: T1, Flag-tagged 6-phosphogluconate dehydrogenase (Flag-6PGD) (human) (UniProt P52209); experiment: co-IP; U87/EGFR cells transiently co-transfected with HA-Fyn and Flag-6PGD, treated with or without EGF (100 ng/ml) for 30 min; immunoprecipitation and immunoblotting with the indicated antibodies
T1 sequence: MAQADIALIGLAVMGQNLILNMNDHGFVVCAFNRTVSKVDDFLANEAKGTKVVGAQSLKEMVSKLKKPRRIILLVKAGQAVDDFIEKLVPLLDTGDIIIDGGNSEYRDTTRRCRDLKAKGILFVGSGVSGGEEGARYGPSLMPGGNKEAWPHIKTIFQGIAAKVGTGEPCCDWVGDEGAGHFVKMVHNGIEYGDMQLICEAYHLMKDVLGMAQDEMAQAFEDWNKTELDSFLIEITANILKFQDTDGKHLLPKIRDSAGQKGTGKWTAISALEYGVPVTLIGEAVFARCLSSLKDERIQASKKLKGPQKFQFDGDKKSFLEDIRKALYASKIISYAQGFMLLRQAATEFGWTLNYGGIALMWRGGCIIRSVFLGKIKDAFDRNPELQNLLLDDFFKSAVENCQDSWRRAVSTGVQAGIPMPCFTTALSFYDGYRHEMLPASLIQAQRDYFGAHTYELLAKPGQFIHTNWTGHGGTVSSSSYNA

[2] = molecular target: T1, Flag-tagged 6-phosphogluconate dehydrogenase (Flag-6PGD) (human); experiment: cross-linking; lysate of U87/EGFR cells transfected with Flag-6PGD, with or without EGF; glutaraldehyde 0.025%, room temperature, 15 min, stopped with Tris-HCl pH 7.5
[3] = molecular target: T1, Flag-tagged 6-phosphogluconate dehydrogenase (Flag-6PGD) (human); experiment: co-IP; U87/EGFR cells co-transfected with Flag-6PGD and HA-6PGD, in the absence or presence of EGF; HA-6PGD precipitated by Flag-6PGD

binding [1]: no binding
Molecule: epidermal growth factor receptor (EGFR) (from UniProt P00533 25-1210)

binding [1]: binds
Molecule: HA-Fyn (from UniProt P06241 1-537) (enzyme)

binding [2]: binds
binding [3]: binds
B1: Flag-tagged 6-phosphogluconate dehydrogenase (Flag-6PGD) (enzyme, UniProt P52209 1-483)
chain: T1 sequence
